Data published in patent US8471061B2 (priority 2004, dated 2013).

Set-up: key to smell evaluation: 0: Not smelled.; 1: Smelled but not unpleasant.; 2: Unpleasant smell
[1] = Aqueous solution (mixed liquid of column eluate and acid; hydrochloride at same molar concentrations), one score per subject, five subjects
[2] = Solid, one score per subject, five subjects
[3] = aqueous solution of 0.5 g in 1 ml of water, one score per subject A-E

Compound | smell evaluation [1] | smell evaluation [2] | smells of aqueous solution in comparison with hydrochloride | smell evaluation [3] | smells of solid in comparison with hydrochloride | smell evaluation (aqueous solution of 0.5 g in 1 ml of water, one score per subject A-E, listed as Comparative Example 2, hydrochloride) | smell evaluation (aqueous solution of 0.5 g in 1 ml of water, one score per subject A-E, listed as Comparative Example 6, hydrochloride) | smell evaluation (aqueous solution of 0.5 g in 1 ml of water, one score per subject A-E, listed as Comparative Example 8, hydrochloride)
NCC(=O)CCC(=O)O.O=[N+]([O-])O [5-aminolevulinic acid nitrate, 5-aminolevulinic Acid Nitrate] | 0 | 0 | smells were not found | 0 | generated no smells | – | – | –
Cl.NCC(=O)CCC(=O)O [5-aminolevulinic acid hydrochloride, reference compound] | 2 | 1 | – | – | – | 1 (3×) and 0 (2×) | 1 (3×) and 0 (2×) | 1 (3×) and 0 (2×)
Cc1ccc(S(=O)(=O)O)cc1.NCC(=O)CCC(=O)O [5-aminolevulinic acid p-toluenesulfonate, 5-aminolevulinic Acid p-toluenesulfonate] | 0 | 0 | smells were not found | 0 | generated no smells | – | – | –
NCC(=O)CCC(=O)O.O=P(O)(O)O [5-aminolevulinic acid phosphate, 5-aminolevulinic Acid Phosphate] | 0 | 0 | smells were not found | 0 | generated no smells | – | – | –

Where “and” joins values, the source holds several entries; their conditions need not be identical. Equal values may be shown once. Read-outs that look alike come from different tables or passages of the source.
